# Data published in the supplement of paper PMC10849652.
# Protein sequences, listed by entry. Tags and fused reporters are not part of them. Lines headed by an entry give the natural chain unless they say otherwise; changes in a name come on top.
# UniProt Q8N5K1: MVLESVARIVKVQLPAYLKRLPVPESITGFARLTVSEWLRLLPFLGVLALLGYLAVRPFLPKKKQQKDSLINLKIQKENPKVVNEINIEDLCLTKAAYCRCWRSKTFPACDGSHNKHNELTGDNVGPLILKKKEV
# UniProt Q9NZN8, whole entry, looked up: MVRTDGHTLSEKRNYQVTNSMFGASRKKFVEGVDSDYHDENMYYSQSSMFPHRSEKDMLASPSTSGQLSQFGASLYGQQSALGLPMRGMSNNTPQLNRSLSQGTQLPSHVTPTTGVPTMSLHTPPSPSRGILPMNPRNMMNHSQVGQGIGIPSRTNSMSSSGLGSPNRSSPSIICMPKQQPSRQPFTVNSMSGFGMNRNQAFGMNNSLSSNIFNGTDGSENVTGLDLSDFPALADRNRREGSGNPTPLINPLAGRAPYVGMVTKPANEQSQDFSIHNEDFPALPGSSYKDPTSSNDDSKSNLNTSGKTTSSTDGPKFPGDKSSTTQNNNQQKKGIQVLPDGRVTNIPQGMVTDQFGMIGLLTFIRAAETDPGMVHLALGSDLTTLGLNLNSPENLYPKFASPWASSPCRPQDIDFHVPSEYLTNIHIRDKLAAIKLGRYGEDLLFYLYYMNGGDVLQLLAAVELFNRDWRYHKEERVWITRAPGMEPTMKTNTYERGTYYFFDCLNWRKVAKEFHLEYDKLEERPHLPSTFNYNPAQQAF
# UniProt Q9NX76: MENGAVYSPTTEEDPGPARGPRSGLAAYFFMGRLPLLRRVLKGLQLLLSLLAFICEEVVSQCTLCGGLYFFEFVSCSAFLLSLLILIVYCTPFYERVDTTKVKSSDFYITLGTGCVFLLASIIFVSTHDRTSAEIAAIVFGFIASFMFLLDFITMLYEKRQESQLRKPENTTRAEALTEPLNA
# UniProt Q9UIV1, whole entry, looked up: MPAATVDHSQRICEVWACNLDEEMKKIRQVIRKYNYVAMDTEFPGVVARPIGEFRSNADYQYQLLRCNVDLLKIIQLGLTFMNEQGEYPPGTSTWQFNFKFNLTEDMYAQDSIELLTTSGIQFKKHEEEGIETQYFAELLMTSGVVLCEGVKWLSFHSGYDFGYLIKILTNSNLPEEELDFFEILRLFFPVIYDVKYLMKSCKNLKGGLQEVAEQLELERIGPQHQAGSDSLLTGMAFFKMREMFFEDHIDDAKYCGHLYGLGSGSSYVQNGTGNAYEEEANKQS
# UniProt P30085: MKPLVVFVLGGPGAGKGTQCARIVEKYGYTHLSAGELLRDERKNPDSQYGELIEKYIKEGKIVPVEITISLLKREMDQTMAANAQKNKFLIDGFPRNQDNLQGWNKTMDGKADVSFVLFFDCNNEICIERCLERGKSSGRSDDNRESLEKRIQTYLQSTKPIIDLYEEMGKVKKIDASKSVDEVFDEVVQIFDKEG
# UniProt Q96DG6: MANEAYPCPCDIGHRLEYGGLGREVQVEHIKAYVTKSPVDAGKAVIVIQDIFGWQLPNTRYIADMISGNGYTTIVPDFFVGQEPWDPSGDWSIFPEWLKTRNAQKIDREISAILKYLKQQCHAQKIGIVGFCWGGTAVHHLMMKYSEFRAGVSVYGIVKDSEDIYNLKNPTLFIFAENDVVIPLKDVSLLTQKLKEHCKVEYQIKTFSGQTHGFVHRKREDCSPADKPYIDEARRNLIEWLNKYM
# UniProt Q9H8M5: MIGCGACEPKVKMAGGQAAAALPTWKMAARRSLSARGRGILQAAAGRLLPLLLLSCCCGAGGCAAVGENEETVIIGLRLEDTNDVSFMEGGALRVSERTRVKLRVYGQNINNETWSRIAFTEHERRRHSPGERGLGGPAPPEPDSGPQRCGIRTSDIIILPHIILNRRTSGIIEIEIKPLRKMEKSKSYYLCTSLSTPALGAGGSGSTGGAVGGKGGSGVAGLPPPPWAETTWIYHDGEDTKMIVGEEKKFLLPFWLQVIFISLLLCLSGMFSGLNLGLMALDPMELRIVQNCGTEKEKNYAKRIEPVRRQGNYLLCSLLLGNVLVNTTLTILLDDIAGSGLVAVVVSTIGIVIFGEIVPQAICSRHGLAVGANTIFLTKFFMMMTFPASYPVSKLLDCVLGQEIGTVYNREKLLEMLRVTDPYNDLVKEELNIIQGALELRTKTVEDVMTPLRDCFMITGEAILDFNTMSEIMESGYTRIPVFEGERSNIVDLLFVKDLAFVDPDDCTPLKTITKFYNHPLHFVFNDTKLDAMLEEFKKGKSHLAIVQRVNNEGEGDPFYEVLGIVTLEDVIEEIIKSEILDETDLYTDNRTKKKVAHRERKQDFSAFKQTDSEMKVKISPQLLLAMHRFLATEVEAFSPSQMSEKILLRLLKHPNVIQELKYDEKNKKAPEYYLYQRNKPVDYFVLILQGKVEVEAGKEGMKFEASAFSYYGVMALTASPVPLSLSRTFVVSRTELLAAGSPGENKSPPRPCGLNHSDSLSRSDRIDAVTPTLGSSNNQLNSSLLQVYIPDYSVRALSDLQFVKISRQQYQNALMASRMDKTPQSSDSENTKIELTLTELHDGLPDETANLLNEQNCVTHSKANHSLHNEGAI
# UniProt P09497: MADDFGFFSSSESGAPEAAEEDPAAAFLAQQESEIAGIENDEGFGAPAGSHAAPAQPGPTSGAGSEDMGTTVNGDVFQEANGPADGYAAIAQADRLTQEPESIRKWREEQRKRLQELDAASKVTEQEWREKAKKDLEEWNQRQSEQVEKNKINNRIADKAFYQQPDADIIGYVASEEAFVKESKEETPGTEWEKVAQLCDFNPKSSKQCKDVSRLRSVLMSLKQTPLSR
# UniProt Q9C0A0: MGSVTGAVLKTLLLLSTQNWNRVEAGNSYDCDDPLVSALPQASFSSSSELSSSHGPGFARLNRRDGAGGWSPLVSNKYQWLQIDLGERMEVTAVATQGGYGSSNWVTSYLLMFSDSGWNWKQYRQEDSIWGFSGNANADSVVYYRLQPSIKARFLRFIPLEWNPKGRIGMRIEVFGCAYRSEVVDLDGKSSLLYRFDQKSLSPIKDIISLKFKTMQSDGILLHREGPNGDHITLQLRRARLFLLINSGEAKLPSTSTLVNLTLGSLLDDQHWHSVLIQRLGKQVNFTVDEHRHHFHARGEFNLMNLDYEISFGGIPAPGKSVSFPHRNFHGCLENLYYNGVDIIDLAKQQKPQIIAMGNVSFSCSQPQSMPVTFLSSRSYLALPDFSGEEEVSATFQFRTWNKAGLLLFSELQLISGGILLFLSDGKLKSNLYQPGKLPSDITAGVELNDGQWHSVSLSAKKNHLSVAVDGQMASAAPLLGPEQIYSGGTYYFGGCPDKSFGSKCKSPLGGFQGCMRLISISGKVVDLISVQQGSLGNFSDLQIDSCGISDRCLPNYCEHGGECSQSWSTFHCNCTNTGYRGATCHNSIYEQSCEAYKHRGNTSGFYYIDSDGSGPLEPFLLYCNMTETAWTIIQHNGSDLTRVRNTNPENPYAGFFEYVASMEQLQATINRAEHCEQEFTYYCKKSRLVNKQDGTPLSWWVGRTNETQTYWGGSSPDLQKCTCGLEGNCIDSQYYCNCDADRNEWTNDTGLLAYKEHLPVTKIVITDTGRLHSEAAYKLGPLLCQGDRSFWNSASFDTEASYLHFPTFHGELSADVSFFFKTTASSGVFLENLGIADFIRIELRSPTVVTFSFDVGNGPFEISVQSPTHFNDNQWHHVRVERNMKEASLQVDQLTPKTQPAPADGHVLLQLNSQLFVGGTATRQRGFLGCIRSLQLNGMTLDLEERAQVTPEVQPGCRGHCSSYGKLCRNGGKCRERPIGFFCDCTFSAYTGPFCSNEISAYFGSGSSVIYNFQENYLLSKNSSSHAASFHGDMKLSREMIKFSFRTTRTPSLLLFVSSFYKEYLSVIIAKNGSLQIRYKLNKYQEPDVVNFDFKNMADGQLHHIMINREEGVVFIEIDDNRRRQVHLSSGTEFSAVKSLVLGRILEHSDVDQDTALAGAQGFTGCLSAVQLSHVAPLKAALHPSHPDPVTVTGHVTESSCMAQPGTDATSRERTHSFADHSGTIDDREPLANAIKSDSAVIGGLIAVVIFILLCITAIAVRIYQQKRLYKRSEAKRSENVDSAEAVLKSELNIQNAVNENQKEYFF
# UniProt O75175, whole entry, looked up: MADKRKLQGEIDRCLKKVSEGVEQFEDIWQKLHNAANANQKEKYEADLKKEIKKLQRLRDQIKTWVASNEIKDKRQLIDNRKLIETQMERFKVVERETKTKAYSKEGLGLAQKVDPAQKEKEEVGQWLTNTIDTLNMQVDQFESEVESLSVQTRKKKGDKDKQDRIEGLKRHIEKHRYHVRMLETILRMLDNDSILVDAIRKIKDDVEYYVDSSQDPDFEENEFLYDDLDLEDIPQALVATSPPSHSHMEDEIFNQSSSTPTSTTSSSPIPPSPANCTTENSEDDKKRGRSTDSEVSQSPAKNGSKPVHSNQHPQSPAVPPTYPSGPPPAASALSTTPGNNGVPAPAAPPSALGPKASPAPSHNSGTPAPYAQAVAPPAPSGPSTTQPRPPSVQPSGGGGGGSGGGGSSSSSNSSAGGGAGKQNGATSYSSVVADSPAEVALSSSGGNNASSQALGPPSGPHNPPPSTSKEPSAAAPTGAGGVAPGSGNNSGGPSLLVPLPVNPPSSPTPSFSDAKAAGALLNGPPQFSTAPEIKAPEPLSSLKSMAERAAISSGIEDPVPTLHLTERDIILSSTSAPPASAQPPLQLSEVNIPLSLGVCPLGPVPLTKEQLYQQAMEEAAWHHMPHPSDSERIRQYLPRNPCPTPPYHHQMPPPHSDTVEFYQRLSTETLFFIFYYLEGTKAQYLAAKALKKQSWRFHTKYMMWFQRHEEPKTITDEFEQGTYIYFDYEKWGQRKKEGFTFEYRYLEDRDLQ
# UniProt Q2KHT3: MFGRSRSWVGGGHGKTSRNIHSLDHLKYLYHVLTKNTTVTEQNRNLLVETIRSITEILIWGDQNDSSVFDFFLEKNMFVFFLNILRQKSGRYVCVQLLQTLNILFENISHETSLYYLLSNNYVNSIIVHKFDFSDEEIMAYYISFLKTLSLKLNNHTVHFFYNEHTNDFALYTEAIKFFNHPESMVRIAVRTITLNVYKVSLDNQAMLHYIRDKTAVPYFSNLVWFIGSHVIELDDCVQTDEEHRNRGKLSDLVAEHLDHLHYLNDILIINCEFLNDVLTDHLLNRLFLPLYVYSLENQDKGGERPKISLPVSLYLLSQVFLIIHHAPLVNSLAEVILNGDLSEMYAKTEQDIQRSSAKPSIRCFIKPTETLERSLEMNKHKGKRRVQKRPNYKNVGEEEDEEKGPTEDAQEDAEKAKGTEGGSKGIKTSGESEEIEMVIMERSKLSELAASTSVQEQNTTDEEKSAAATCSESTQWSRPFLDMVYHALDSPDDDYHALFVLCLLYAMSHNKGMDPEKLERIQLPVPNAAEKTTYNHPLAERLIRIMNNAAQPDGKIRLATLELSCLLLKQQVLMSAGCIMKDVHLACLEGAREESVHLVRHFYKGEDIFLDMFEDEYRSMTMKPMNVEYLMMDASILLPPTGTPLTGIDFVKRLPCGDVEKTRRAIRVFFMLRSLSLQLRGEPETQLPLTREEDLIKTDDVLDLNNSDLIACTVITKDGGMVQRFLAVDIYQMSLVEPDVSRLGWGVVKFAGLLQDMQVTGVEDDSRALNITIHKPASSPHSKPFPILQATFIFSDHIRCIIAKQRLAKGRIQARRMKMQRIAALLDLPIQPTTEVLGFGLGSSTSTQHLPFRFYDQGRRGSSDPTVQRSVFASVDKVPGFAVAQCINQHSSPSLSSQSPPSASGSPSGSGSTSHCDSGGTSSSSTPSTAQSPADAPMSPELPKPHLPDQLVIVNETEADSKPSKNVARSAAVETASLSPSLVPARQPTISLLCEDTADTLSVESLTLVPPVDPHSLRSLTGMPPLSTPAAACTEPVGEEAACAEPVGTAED
# UniProt Q6P4Q7: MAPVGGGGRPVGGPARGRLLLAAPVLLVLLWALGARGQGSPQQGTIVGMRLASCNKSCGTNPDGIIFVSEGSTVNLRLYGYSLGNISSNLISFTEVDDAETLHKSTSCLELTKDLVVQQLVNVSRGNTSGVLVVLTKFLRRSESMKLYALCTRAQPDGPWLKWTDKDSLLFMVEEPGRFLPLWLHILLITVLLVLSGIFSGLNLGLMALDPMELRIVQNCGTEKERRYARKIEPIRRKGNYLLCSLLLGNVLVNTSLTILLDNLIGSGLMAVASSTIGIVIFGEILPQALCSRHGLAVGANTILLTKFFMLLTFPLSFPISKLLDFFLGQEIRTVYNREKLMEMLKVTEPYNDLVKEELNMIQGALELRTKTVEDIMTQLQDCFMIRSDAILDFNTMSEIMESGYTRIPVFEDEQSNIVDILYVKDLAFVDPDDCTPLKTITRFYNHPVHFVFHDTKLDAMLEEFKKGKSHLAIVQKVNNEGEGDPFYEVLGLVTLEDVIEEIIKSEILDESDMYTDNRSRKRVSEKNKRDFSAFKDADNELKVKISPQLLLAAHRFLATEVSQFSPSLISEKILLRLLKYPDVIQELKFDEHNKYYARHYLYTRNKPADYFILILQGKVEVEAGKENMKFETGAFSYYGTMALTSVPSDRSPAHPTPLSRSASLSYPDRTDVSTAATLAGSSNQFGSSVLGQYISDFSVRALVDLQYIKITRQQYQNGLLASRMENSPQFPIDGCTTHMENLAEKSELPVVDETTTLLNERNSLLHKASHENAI
# Some of the results follow.
# Tests used:
# Assay in all cases: log2 fold change, soluble protein after heating vs DMSO (PISA); higher = thermal stabilisation; K562 cells, 10 uM, 30 min; active = over 0.2 and 3.5 SD of the protein, either way, in both replicates (recomputed)
# [1] = compound: CC1=C(C=C(C=C1)NC(=O)C2=CC(=CC=C2)C(C)(C)C#N)NC3=CC4=C(C=C3)N=CN(C4=O)C
# Procedure, shortened: (§1)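 Quantification of soluble protein used TMTpro 16plex LC-MS/MS, with channel sums equalised. Samples were the supernatant after 21,000xg for 90 min of pooled aliquots from K562 cells (2×10^6 cells/mL) treated with 10 μM compound for 30 min, heated for 3 min over 48°C-58°C, and extracted in PBS with 0.5% NP-40 at 4°C. Values, from duplicates, describe thermal stability against control samples on a log2 fold-change scale.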
# [2] = compound: CC1=C(C=C(C=C1)NC(=O)C2=CC(=CC=C2)N(C)C)NC(=O)C3=CC=C(C=C3)O
# Procedure, shortened: as §1
# [3] = compound: CC1=CC=C(C=C1)SC2=C3C=C(SC3=CN=C2)C(=O)N
# Procedure, shortened: as §1
# [4] = compound: CC1=NC(=CC=C1)C2=C(N=C(N2)C(C)(C)C)C3=CC4=NC=CN=C4C=C3
# Procedure, shortened: as §1
# [5] = compound: CCCCN(Cc1ccc(C(=O)NO)cc1)C(=O)Nc1ccccc1 [Nexturastat A]
# Procedure, shortened: as §1
# [6] = compound: CCCS(=O)(=O)Nc1ccc(F)c(C(=O)c2c[nH]c3ncc(-c4ccc(Cl)cc4)cc23)c1F [vemurafenib]
# Procedure, shortened: as §1
# [7] = compound: CCCS(=O)(=O)Nc1ccc(F)c(C(=O)c2c[nH]c3ncc(Cl)cc23)c1F
# Procedure, shortened: as §1
# [8] = compound: CCCc1cc(C)[nH]c(=O)c1CNC(=O)c1cc(-c2ccnc(N3CCN(C)CC3)c2)cc2c1cnn2C(C)C
# Procedure, shortened: as §1
# [9] = compound: CCN(CC)Cc1ccc2cc(COC(=O)Nc3ccc(C(=O)NO)cc3)ccc2c1 [givinostat]
# Procedure, shortened: as §1
# [10] = compound: CCN(CCCOc1ccc2c(Nc3cc(CC(=O)Nc4cccc(F)c4)[nH]n3)ncnc2c1)CCOP(=O)(O)O [barasertib]
# Procedure, shortened: as §1
# [11] = compound: CC[C@@H]1C(=O)N(C)c2cnc(Nc3ccc(C(=O)NC4CCN(C)CC4)cc3OC)nc2N1C1CCCC1
# Procedure, shortened: as §1
# [12] = compound: CC[C@@H]1C(=O)N(C)c2cnc(Nc3ccc(C(=O)N[C@H]4CC[C@H](N5CCN(CC6CC6)CC5)CC4)cc3OC)nc2N1C(C)C [volasertib]
# Procedure, shortened: as §1
# [13] = compound: CC[C@H](C)N1C=C(C2=C(C=C(C=C21)C3=CN=C(C=C3)N4CCNCC4)C(=O)NCC5=C(C=C(NC5=O)C)C)C
# Procedure, shortened: as §1
# [14] = compound: CC[C@H](C)[C@@H](C(=O)N[C@@H]([C@@H](C)O)C(=O)N[C@@H](CC(C)C)C(=O)[C@]1(CO1)C)NC(=O)[C@H]([C@@H](C)CC)N(C)C(=O)C [epoxomicin]
# Procedure, shortened: as §1
# [15] = compound: CCn1c(C(=O)N(C2CC2)C2CC2)cc2c3c(ncn3C)c(Nc3cc(C)n(C)n3)nc21
# Procedure, shortened: as §1
# [16] = compound: CCn1cc(-c2ccnc3[nH]c(-c4cccc(CN(C)C)c4)cc23)c(-c2ccc(NC(=O)N(C)C)cc2)n1
# Procedure, shortened: as §1
# [17] = compound: CN(C)CC(=O)Nc1ccc2[nH]c(=O)c3ccccc3c2c1
# Procedure, shortened: as §1
# [18] = compound: CN(CCOC1=CC=C(C=C1)C[C@H]2C(=O)NC(=O)S2)C3=CC=CC=N3 (racemic) [rosiglitazone]
# Procedure, shortened: as §1
# [19] = compound: CN1C2=C(C3=C1C(=O)N(N=C3)CC4=CC(=CC=C4)N)SC(=C2)S(=O)C
# Procedure, shortened: as §1
# [20] = compound: CN1CCC(CNc2ccc3ncc(-c4cccc(OC(F)(F)F)c4)n3n2)CC1
# Procedure, shortened: as §1
Target,log2 fold change [1],log2 fold change [2],log2 fold change [3],log2 fold change [4],log2 fold change [5],log2 fold change [6],log2 fold change [7],log2 fold change [8],log2 fold change [9],log2 fold change [10],log2 fold change [11],log2 fold change [12],log2 fold change [13],log2 fold change [14],log2 fold change [15],log2 fold change [16],log2 fold change [17],log2 fold change [18],log2 fold change [19],log2 fold change [20]
CISD2 (UniProt Q8N5K1),inactive: 0.025,inactive: -0.013,inactive: -0.022,inactive: -0.028,inactive: -0.027,inactive: -0.044,inactive: -0.03,inactive: -0.033,inactive: 0.022,inactive: -0.02,inactive: 0.034,inactive: 0.052,inactive: -0.043,inactive: -0.035,inactive: 0.001,inactive: -0.031,inactive: -0.025,inactive: -0.001,inactive: -0.042,inactive: 0.121
CNOT2 (UniProt Q9NZN8),inactive: -0.075,inactive: 0.136,inactive: -0.027,inactive: 0.008,inactive: 0.017,inactive: -0.03,inactive: 0.006,inactive: -0.018,inactive: 0.059,inactive: 0.01,inactive: -0.035,inactive: -0.168,inactive: 0.021,inactive: -0.034,–,inactive: 0.085,inactive: 0.015,–,inactive: 0.062,inactive: -0.027
CKMT2 (UniProt P17540),inactive: -0.081,inactive: -0.034,inactive: -0.019,inactive: -0.016,inactive: 0,inactive: -0.01,inactive: 0.001,inactive: -0.033,inactive: -0.079,inactive: -0.064,inactive: 0.071,inactive: 0.096,inactive: 0.019,inactive: -0.15,inactive: -0.05,inactive: -0.142,inactive: 0.05,inactive: -0.079,inactive: -0.082,inactive: 0.062
CKMT1A (UniProt P12532),inactive: -0.068,inactive: 0.02,inactive: -0.042,inactive: -0.036,inactive: 0.019,inactive: -0.011,inactive: -0.023,inactive: 0.066,inactive: -0.061,inactive: -0.028,inactive: 0.038,inactive: 0.056,inactive: -0.022,inactive: 0.013,inactive: -0.035,inactive: 0.018,inactive: 0.004,inactive: -0.017,inactive: -0.03,inactive: -0.023
CMTM6 (UniProt Q9NX76),inactive: -0.039,inactive: -0.067,inactive: -0.19,inactive: -0.036,inactive: -0.043,inactive: -0.229,inactive: 0.171,inactive: -0.104,inactive: 0.026,inactive: 0.003,inactive: -0.009,inactive: 0.035,inactive: -0.146,inactive: 0.044,inactive: 0.007,–,inactive: 0.052,inactive: -0.01,inactive: -0.056,–
COL15A1 (UniProt P39059),inactive: -0.045,inactive: -0.106,inactive: 0.22,inactive: 0.023,inactive: 0.152,inactive: 0.073,inactive: -0.269,inactive: -0.021,inactive: 0.087,inactive: 0.027,inactive: 0.02,inactive: -0.224,inactive: -0.042,inactive: 0.106,inactive: -0.074,–,inactive: -0.019,inactive: 0.008,inactive: 0.243,–
CNOT7 (UniProt Q9UIV1),inactive: 0.046,inactive: -0.043,inactive: 0.075,inactive: 0.014,inactive: 0.048,inactive: -0.068,inactive: 0.053,inactive: -0.011,inactive: -0.026,inactive: 0.004,inactive: -0.086,active: -0.305,inactive: -0.049,inactive: -0.053,–,inactive: -0.052,inactive: -0.121,–,inactive: 0.021,inactive: -0.082
CNOT8 (UniProt Q9UFF9),inactive: 0.022,inactive: 0,inactive: -0.013,inactive: -0.009,inactive: 0.116,inactive: 0.123,inactive: 0.034,inactive: -0.292,inactive: -0.018,inactive: -0.105,inactive: -0.055,inactive: -0.057,inactive: 0.051,inactive: 0.095,inactive: 0.044,–,inactive: -0.15,inactive: -0.06,inactive: -0.003,–
CMPK1 (UniProt P30085),inactive: 0.011,inactive: 0.004,inactive: -0.004,inactive: 0.022,inactive: -0.01,inactive: 0.068,inactive: 0.004,inactive: -0.068,inactive: -0.007,inactive: -0.001,inactive: -0.032,inactive: 0.08,inactive: 0.002,inactive: 0.092,inactive: -0.001,inactive: -0.023,inactive: 0.052,inactive: 0.02,inactive: -0.088,inactive: -0.01
CMBL (UniProt Q96DG6),inactive: -0.008,inactive: -0.023,inactive: 0.017,inactive: -0.009,inactive: 0.043,inactive: -0.009,inactive: -0.024,inactive: -0.009,inactive: 0.105,inactive: -0.018,inactive: 0.112,inactive: 0.196,inactive: -0.036,inactive: -0.029,inactive: 0.025,inactive: -0.047,inactive: 0.011,inactive: 0.004,inactive: -0.049,inactive: -0.015
CNNM2 (UniProt Q9H8M5),inactive: -0.116,inactive: -0.222,inactive: -0.103,inactive: -0.122,inactive: -0.101,inactive: -0.099,inactive: -0.26,inactive: 0.053,inactive: -0.048,inactive: 0.007,inactive: -0.058,inactive: -0.017,inactive: 0.042,inactive: 0.03,inactive: -0.005,inactive: -0.234,inactive: -0.229,inactive: -0.031,inactive: 0.058,inactive: 0.036
CLTB (UniProt P09497),inactive: -0.003,inactive: -0.025,inactive: -0.007,inactive: 0.037,inactive: -0.039,inactive: -0.009,inactive: -0.012,inactive: -0.036,inactive: 0.047,inactive: -0.023,inactive: 0.099,inactive: 0.134,inactive: -0.102,inactive: 0.032,–,inactive: -0.006,inactive: -0.024,–,inactive: -0.064,inactive: 0.106
CNTNAP4 (UniProt Q9C0A0),inactive: -0.028,inactive: -0.02,inactive: -0.087,inactive: -0.103,inactive: 0.065,inactive: -0.094,inactive: -0.068,inactive: 0.116,inactive: 0.022,inactive: -0.119,inactive: 0.199,inactive: 0.237,inactive: 0.056,inactive: -0.027,inactive: 0.074,inactive: 0.198,inactive: -0.071,inactive: -0.071,inactive: 0.285,inactive: 0.179
CNOT3 (UniProt O75175),inactive: -0.041,inactive: 0.003,inactive: -0.022,inactive: 0.04,inactive: 0.003,inactive: 0.033,inactive: 0.08,inactive: 0.032,inactive: 0.049,inactive: 0.069,inactive: -0.15,inactive: -0.116,inactive: 0.055,inactive: 0.127,inactive: -0.02,inactive: 0.028,inactive: 0.052,inactive: 0.027,inactive: 0.005,inactive: -0.051
CLEC16A (UniProt Q2KHT3),inactive: -0.035,inactive: -0.018,inactive: -0.037,inactive: 0.05,inactive: -0.052,inactive: -0.054,inactive: -0.08,inactive: 0.028,inactive: 0.016,inactive: -0.018,inactive: 0.023,inactive: 0.029,inactive: -0.016,inactive: 0,inactive: -0.029,inactive: 0.042,inactive: 0,inactive: 0.023,inactive: 0.032,inactive: -0.002
CNNM4 (UniProt Q6P4Q7),inactive: -0.091,inactive: -0.063,inactive: -0.231,inactive: -0.14,inactive: 0.014,inactive: -0.102,inactive: -0.051,inactive: 0.023,inactive: -0.027,inactive: 0.072,inactive: -0.191,inactive: -0.219,inactive: 0.115,inactive: -0.022,inactive: -0.067,inactive: 0.055,inactive: 0.009,inactive: 0.035,inactive: -0.02,inactive: -0.007
CNBP isoform 6 (UniProt P62633),inactive: -0.022,inactive: -0.004,inactive: -0.075,inactive: -0.035,inactive: 0.072,inactive: -0.065,inactive: -0.061,inactive: 0.038,inactive: -0.066,inactive: -0.024,inactive: 0.07,inactive: 0.101,inactive: -0.037,inactive: -0.04,inactive: 0.046,inactive: 0.06,inactive: -0.1,inactive: -0.055,inactive: 0.035,inactive: 0.117

# Taken from the listing (two entries):
Target,log2 fold change [1],log2 fold change [2],log2 fold change [3],log2 fold change [4],log2 fold change [5],log2 fold change [6],log2 fold change [7],log2 fold change [8],log2 fold change [9],log2 fold change [10],log2 fold change [11],log2 fold change [12],log2 fold change [13],log2 fold change [14],log2 fold change [15],log2 fold change [16],log2 fold change [17],log2 fold change [18],log2 fold change [19],log2 fold change [20]
CISD2 (UniProt Q8N5K1),inactive: 0.025,inactive: -0.013,inactive: -0.022,inactive: -0.028,inactive: -0.027,inactive: -0.044,inactive: -0.03,inactive: -0.033,inactive: 0.022,inactive: -0.02,inactive: 0.034,inactive: 0.052,inactive: -0.043,inactive: -0.035,inactive: 0.001,inactive: -0.031,inactive: -0.025,inactive: -0.001,inactive: -0.042,inactive: 0.121
CNOT2 (UniProt Q9NZN8),inactive: -0.075,inactive: 0.136,inactive: -0.027,inactive: 0.008,inactive: 0.017,inactive: -0.03,inactive: 0.006,inactive: -0.018,inactive: 0.059,inactive: 0.01,inactive: -0.035,inactive: -0.168,inactive: 0.021,inactive: -0.034,–,inactive: 0.085,inactive: 0.015,–,inactive: 0.062,inactive: -0.027
